The nature of the test: qHTS Assay for Modulators of Lamin A Splicing. The following applies: HeLa LMNA splicing GFP/RFP minigene ratio, 48 h. A digest of the protocol:
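S3 HeLa cells stably expressing lamin A-EGFP splicing minigene plus DsRed2, 600 cells/well, 48 h compound exposure at 37C. Laser-scanning cytometry; analysed as GFP (500-530 nm)/RFP (575-640 nm) total intensity ratio; 0.5% DMSO vehicle.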
For orientation: In qHTS, concentration-response curves come from the screen itself.

The mark [1] stands for this setting: measured here: GFP splicing reporter channel.
The mark [2] stands for this setting: measured here: RFP viability control channel.

The other results are listed elsewhere or left out. Shown are side measurements of this screen, not its main read-out; they come without a call. Most of these compounds were active or inconclusive in the main read-out, so they are no random draw. Potencies come from curve fits of mixed quality, noted in brackets.

By AC50 is commonly meant the concentration at which the activity in the assay is half-maximal. For `CCn1cc(S(=O)(=O)c2ccccc2)c(=O)c2cc(F)c(N3CCCCCC3)cc21`, the half-maximal activity concentration (AC50) by setting is: under setting [1], 0.224 µM [falling, full curve]; under setting [2], 5.62 µM [falling, partial curve].

As to `CCCc1c(CC)c(=N)c2ccccc2n1C`, under setting [2], the AC50 is 14.1 µM [rising, single point].

Take `O=C(O)c1ccc(C(=O)c2ccc3c(c2)C(=O)N(CC2CCCO2)C3=O)cc1` (stereo not given): the half-maximal activity concentration (AC50) under setting [1] was 17.8 µM [rising, partial curve, poor fit].

On to `S=C(NCCCN1CCOCC1)Nc1ccc(Cl)cc1`, for which the AC50 under setting [1] was 35.5 µM [rising, single point].

Take `Cc1cc(C(=O)N/N=C/c2cc(Cl)cc([N+](=O)[O-])c2O)c2ccccc2n1`: the AC50 under setting [2] was 22.4 µM [rising, single point].

Take `CCCCC1=CC2=C(c3ccco3)C(=O)C(C)(OC(=O)c3ccc(OC)cc3)C(=O)C2=CN1Cc1ccc2c(c1)OCO2` (stereo not given): the concentration at half-maximal activity (AC50) under setting [1] is 2.82 µM [falling, single point].

Take `O=C(CSc1ncn[nH]1)N1CCOCC1`: the AC50 by setting is: under setting [1], 0.00794 µM [falling, full curve, poor fit]; under setting [2], 0.01 µM [falling, full curve, poor fit].

Consider `O=C(NCc1cccnc1)c1ccc(COc2ccc3c(c2)CCC3)o1`, for which, under setting [2], the AC50 is 15.8 µM [rising, partial curve, poor fit].

For `CCOC(=O)c1cc2c(ccn2C)n1CC(=O)N1CCC(Cc2ccccc2)CC1`, the AC50 was 14.1 µM [rising, single point] under setting [1] and 15.8 µM [rising, single point] under setting [2].

For the compound `CCn1ncc(C2=NOC(C(=O)Nc3cccnc3)C2)c1C` (stereo not given), the concentration at half-maximal activity (AC50) under setting [2] is 17.8 µM [rising, single point].

As for `COc1cccc(N/C=C/c2onc(C)c2[N+](=O)[O-])c1`, the concentration at half-maximal activity (AC50) under setting [2] was 0.355 µM [rising, partial curve, poor fit].

In the case of `O=c1c2ccccc2nc(/C=C/c2ccccc2)n1CCc1ccccc1`, the AC50 under setting [2] is 20 µM [rising, partial curve].

As for `O=C(c1ccccc1)N1CCC(c2nc(-c3ccc(S(=O)(=O)NCC4CCCO4)cc3)no2)CC1` (stereo not given), the AC50 under setting [2] was 2.82 µM [rising, full curve].

As to `Cn1c(=O)n(C)c2cc(CNCc3ccc(C(=O)O)cc3)ccc21`, under setting [1], the AC50 is 0.0631 µM [rising, full curve, poor fit].

On to `CC(Sc1nc2ccccc2s1)C(=O)Nc1nnc(C(C)C)s1` (stereo not given), for which the half-maximal activity concentration (AC50) under setting [2] was 31.6 µM [rising, single point].

For the compound `CC(Oc1ccc(Cl)cc1Cl)C(=O)Nc1ccc2oc(-c3ccncc3)nc2c1` (stereo not given), the AC50 under setting [2] was 2.82 µM [rising, full curve, poor fit].

Consider `Oc1ccc(-c2nc3cnccn3c2Nc2ccc3c(c2)OCCO3)cc1`, for which the AC50 under setting [2] was 35.5 µM [rising, single point].
